Measurements as given in publication PMC12052773.
These are yes or no findings as the source states them, for the method shown. Binding seen in cells or lysates may run through a third protein. Some entries that bind do so weakly or less than the wild type. For some assays here: Tags and fused reporters may be left off the sequences shown.

Chains of the proteins cited; added tags and fusions are not shown.
UniProt P53396: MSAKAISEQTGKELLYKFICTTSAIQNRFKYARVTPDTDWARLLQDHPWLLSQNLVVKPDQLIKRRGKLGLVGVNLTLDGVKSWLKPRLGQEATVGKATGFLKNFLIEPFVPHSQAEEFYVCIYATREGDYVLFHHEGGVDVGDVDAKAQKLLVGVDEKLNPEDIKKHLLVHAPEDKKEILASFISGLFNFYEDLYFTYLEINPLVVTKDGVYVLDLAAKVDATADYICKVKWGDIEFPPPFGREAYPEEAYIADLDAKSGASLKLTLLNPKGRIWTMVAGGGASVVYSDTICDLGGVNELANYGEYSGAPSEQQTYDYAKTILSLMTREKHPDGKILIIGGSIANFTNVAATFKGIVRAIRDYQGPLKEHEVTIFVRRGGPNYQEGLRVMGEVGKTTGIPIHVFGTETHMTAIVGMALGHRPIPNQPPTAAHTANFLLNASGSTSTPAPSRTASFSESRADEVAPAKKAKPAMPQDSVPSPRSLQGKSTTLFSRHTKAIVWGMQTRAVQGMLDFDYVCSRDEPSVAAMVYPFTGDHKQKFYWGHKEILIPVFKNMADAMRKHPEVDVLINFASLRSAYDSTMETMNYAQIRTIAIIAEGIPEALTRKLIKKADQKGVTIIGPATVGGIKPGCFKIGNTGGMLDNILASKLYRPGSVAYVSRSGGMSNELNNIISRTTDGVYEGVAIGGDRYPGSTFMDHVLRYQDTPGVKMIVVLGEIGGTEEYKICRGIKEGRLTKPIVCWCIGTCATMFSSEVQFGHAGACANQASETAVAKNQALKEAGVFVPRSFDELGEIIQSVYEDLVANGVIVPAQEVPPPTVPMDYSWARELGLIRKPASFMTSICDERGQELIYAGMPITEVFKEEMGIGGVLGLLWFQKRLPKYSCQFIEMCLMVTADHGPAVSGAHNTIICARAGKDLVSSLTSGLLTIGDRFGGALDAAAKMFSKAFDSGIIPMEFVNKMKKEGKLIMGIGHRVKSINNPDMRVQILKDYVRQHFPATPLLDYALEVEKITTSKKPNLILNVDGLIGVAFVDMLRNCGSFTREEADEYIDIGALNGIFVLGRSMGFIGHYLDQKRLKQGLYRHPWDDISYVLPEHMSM

What was measured:
[1] = target: T1, RNF180 (Ring finger protein 180), endogenous in KYSE-150 cells (human (endogenous in KYSE-150)) (UniProt Q86T96); assay: co-IP; cell lysates in RIPA (>1000 ug) incubated with antibody against RNF180, ACC1 or ACLY, then Protein G agarose beads, washed four times with RIPA, Western blot; KYSE-150 cells and RNF180 transfectants, with or without MG132 (5 uM, 9 h)
T1 sequence: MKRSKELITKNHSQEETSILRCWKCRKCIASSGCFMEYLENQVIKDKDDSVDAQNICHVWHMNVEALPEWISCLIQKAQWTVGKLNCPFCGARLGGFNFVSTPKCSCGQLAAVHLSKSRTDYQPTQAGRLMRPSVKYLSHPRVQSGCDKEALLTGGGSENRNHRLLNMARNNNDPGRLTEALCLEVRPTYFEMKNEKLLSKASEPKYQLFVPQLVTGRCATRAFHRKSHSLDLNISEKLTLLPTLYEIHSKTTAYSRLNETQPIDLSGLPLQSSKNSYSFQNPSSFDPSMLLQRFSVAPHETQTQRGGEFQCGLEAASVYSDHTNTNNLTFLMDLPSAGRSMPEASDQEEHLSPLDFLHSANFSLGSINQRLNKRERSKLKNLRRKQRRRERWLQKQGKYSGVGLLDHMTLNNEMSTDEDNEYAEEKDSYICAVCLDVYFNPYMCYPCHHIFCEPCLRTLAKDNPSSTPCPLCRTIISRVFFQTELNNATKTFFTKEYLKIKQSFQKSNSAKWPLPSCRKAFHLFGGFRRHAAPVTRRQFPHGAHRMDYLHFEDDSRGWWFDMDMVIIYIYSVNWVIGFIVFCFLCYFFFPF

[2] = target: T2, RNF180 (Ring finger protein 180), 3xFLAG-tagged, overexpressed in KYSE-150 cells (human) (UniProt Q86T96); assay: as above
T2 sequence: T1 sequence

Substance: ACLY (from UniProt P53396 1-1101) (enzyme)
- binding [1]: binds
- binding [2]: binds
